Results from patent US20210147847.
A weaker result is weaker than the reference pair of the same experiment.

Test system: human IgG1 Fc (Homo sapiens)
Test: filter binding
Settings: low binding to Fc tag; 500 nM protein, 37 C; purified recombinant protein; label: 5'-32P or 5'-ATTO 647N; single-stranded DNA

## GCTGTGTGACTCCTGCAATGCAATCTAGCTGACAATGGGGGGGAAGAATGTGGGTGGGTGGCAGCTGTATCTTGTCTCC [CTL #5]
  binding result: binds more weakly
